Results on 16 compounds are retold here after PubChem BioAssay AID2685 (National Center for Advancing Translational Sciences (NCATS), 2010).

The test is described as follows: qHTS Assay for Lipid Storage Modulators in Drosophila S3 Cells.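 On cell number change: cells counted by Cell Tracker Red CMTPX staining in the red channel.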 The following applies: BODIPY lipid droplet fluorescence, 18-24 h; for cell number change: measured here: cell count max response, cells fed with added oleic acid. A digest of the protocol:
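Laser-scanning cytometry quantifies lipid droplet accumulation (500–530 nm total intensity; droplet/cell object ratio) in oleic acid-fed (400 uM added) Drosophila S3 cells treated with a concentration series. 20 uM Triacsin C defined 100% inhibition.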
On the technique in general: qHTS replaces the single test concentration by a dilution series.

Setting [1] is: measured here: cell number channel AC50, cells fed with added oleic acid.
Setting [2] is: measured here: lipid fluorescence (Fed channel) AC50, cells fed with added oleic acid.

The list shows a part of the results. Further columns of the screen follow, without active or inactive calls. The list favours compounds with an active or inconclusive main result. Potencies come from curve fits of mixed quality, noted in brackets.

Consider `CC1CCCCC12NC(=O)N(CC(=O)OCc1ccccc1Cl)C2=O` (centres undefined), for which the half-maximal activity concentration (AC50) was 6.51 µM [falling, single point] under setting [1] and 29.1 µM [rising, single point] under setting [2]. In the case of `CCc1c(C)nc2ncnn2c1Nc1ccccc1C`, the cell number change was -5.49%. Take `CCCc1sc(N/N=C/c2ccccn2)nc1-c1ccc(F)cc1`: the cell number change was -76.6%. In addition, under setting [1], the concentration at half-maximal activity (AC50) was 25.9 µM [falling, partial curve]. Under setting [2], the half-maximal activity concentration (AC50) is 25.9 µM [falling, partial curve]. Consider `Cn1ncc(Br)c1C(=O)NC1CCCCC1`, for which, under setting [2], the AC50 is 18.4 µM [rising, partial curve]. As for `Cc1cc(C)nc(SCc2ccc(C(=O)N/N=C/c3ccccc3C(=O)O)cc2)n1`, the concentration at half-maximal activity (AC50) under setting [2] was 6.51 µM [rising, single point]. For the compound `COc1nc(Nc2nc3ccccc3c(=O)[nH]2)nc2ccc(C)cc12`, the cell number change is -36.5%. Also, the AC50 under setting [1] was 1.3 µM [falling, full curve]. For the same compound, the AC50 under setting [2] is 4.61 µM [falling, full curve, poor fit].

With `O=[N+]([O-])c1ccc(Cl)c(/C=N/N2CCN(Cc3ccc(Cl)cc3)CC2)c1`, under setting [2], the AC50 is 1.64 µM [rising, partial curve].

Consider `N=c1c(S(=O)(=O)c2ccccc2)cc2c(=O)n3ccccc3nc2n1CCCN1CCOCC1`, for which the cell number change came out at 31.6%. Besides, the AC50 under setting [1] was 2.06 µM [rising, full curve, poor fit]. As to `O=C1CC(C(=O)Nc2ccc(Cl)cc2[N+](=O)[O-])C2(CCCCC2)O1` (centres undefined), the cell number change was 4.5%. `COc1ccccc1-n1cnnc1SCC(=O)Nc1cccnc1Cl`: the cell number change is 43%. Moreover, the AC50 under setting [1] was 5.8 µM [rising, full curve]. Under setting [2], the AC50 was 5.17 µM [rising, partial curve]. As for `CCOc1cc(N2CCOCC2)c(OCC)cc1NC(=O)COC(=O)COc1cc(C)cc(C)c1`, the cell number change is -44%. In addition, the AC50 under setting [1] is 18.4 µM [falling, single point]. The AC50 under setting [2] is 20.6 µM [falling, single point].

For the compound `CCc1nnc(NCC(=O)N2CCc3ccccc32)s1`, under setting [1], the AC50 is 0.13 µM [falling, full curve, poor fit]. Regarding `N#CCCN(NC1=NS(=O)(=O)c2ccccc21)C(=O)c1ccccc1Br`, the cell number change was 19.6%. Turning to `O=C([C@@H]1CCCN1C(=O)c1cccs1)N1CCN(S(=O)(=O)c2cccc(F)c2)CC1`, the cell number change came to 2.19%. For the same compound, the AC50 under setting [2] is 0.00461 µM [falling, full curve, poor fit]. In the case of `CCOC(=O)c1cnn(C(=O)c2ccccc2)c1N`, the cell number change came out at 6.49%. In addition, the AC50 under setting [2] is 18.4 µM [rising, single point]. As to `Cc1[nH]c2ccccc2c1/C=N/NC(=O)c1cccc(S(=O)(=O)Nc2ccccc2Cl)c1`, the cell number change was 2.32%. Moreover, the AC50 under setting [2] is 0.92 µM [rising, full curve, poor fit].

By AC50 is commonly meant the concentration giving half of the maximal activity seen. Low values mean greater potency, high ones weaker potency.
